Experimental data taken from PMC8655160, “Overcome Chemoresistance: Biophysical and Structural Analysis of Synthetic FHIT-Derived Peptides” (Frontiers in Molecular Biosciences, 2021).
Results are given in words; binding and its absence hold for the method and conditions named. Some binding calls cover weakened binding; strength is not graded here. Tags and fused reporters may be left off the sequences shown. Values belong to the binder of their own block, whether it stands above or below them.

Molecular target: T1, His-tag-ANXA4 (annexin A4) (UniProt P09525)
T1 sequence (chain, in MST only, labelled with His-Tag Labeling Kit RED-tris-NTA (NT647 fluorophore)): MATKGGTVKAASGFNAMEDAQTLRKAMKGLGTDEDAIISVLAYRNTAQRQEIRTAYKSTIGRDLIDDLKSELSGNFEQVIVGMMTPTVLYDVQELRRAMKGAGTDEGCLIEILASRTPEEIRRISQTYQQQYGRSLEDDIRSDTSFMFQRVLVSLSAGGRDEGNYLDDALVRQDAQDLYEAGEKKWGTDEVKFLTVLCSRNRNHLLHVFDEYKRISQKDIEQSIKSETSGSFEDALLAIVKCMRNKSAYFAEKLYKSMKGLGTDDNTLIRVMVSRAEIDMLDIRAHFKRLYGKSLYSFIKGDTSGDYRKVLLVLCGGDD
Test: SPR; Biacore T200; His-tag-ANXA4 captured on anti-histidine antibody coupled to CM5 chip; peptide 0.08-5 uM injected at 25 C, 30 uL/min, 120 s association, 600 s dissociation; HBS-P+ pH 7.4 with 5 mM CaCl2; global 1:1 fit, KD = kd/ka; both purified

binding: binds
B1: peptide 6 (QHAIKPS) (peptide)
peptide: QHAIKPS
modifications: N-terminal acetyl

binding: binds
B2: peptide 5 (QHLAKPS) (peptide)
peptide: QHLAKPS
modifications: N-terminal acetyl
